# Primary screen of a compound library

The chains behind the UniProt entries cited, without tags or fusion partners.
UniProt E9BF75, entry or part of it: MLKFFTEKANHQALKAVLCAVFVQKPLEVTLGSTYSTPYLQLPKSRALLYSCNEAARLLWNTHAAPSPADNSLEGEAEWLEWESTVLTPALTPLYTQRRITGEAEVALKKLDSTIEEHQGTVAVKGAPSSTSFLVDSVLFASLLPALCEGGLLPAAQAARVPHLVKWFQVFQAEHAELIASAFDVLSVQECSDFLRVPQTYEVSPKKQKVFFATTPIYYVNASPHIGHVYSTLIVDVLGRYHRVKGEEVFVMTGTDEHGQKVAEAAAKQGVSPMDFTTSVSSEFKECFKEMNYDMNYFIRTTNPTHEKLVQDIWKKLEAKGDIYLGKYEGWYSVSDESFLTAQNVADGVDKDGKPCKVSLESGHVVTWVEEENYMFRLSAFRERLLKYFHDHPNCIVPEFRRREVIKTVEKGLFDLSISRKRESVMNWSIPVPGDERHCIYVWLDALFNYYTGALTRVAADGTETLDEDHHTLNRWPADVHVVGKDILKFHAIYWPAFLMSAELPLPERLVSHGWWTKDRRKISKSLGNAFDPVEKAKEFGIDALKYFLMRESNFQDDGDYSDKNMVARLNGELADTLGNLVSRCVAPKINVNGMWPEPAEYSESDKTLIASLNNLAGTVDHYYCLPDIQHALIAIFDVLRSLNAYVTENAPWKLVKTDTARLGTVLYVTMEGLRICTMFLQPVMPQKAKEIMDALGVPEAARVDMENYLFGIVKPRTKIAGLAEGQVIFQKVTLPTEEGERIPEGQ

Source: ChEMBL document CHEMBL3988442, “University of Dundee, Small-Polar-MMV Screening Library” (2021).

A: 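Primary screen of methionyl-tRNA synthetase; the read-out is not stated. Target: Methionyl-tRNA synthetase (putative), Leishmania donovani (UniProt E9BF75). The test concentration is not given. Values are per cent inhibition. About 68,000 compounds were tested under these conditions; 0.035% (about 24) showed 50% or more at least once.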
B: 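Assay on Mycobacterium tuberculosis, filed only as a heat shock assay from Cornell; the read-out is not stated. The concentration is filed as 10 mM, unlikely as a test dose, so the dose is not known. Direction is inferred from retests: higher values go with stronger inhibition. Of about 69,000 compounds tested this way, about 930 (1.4%) reached 50% or more in at least one test.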

Results are percentages, as filed.
How 0% and 100% were set is not recorded. Most values in the screen are low, and negative values occur.
This is an unselected part of the compounds tested.
A dash means the value is not listed here; it may have been measured.

| structure | A | B |
|---|---|---|
| `[H][C@]12CCCCN1CCC[C@H]2CCC(=O)NCCc1nc(O)cc(O)n1` | - | -18.12 |
| `CCOCC(=O)N1CC[C@H]2O[C@@H](C)C[C@H]2C1` | 9.95 | - |
| `NC(=O)CC1CCN(Cc2ccccc2OCC(F)(F)F)CC1` | 3.073 | -8.148 |
| `CC(NC(=O)NCC(C)(C)O)c1ccc(-c2cncnc2)cc1` (stereo not given) | 8.242 | -15.95 |
| `Cc1cc(C(=O)NCc2ccc(F)cc2)nc(C2CCCN2C)n1` (stereo not given) | 0.6452 | 3.148 |
| `Cc1n[nH]c(C)c1NC(=O)Nc1cccnc1N1CCCC1` | 5.645 | -7.858 |
| `NCc1cccc(NC(=O)CCN2CCOCC2)c1` | 7.542 | -17.14 |
| `O=C(N[C@@H]1CN(Cc2cccs2)[C@@H]2CCCO[C@@H]21)C1CC1` | 9.623 | - |
| `CC1CCN(C(=O)C(C)N2CCc3[nH]nc(C(F)(F)F)c3C2)CC1` (stereo not given) | 22.53 | -1.346 |
| `CS(=O)(=O)CCNC(=O)c1cc2ccccc2nc1N1CCCC1` | 23.92 | 5.777 |
| `CCc1nc2n(n1)CC(NCC(=O)Nc1oc(C)c(C)c1C#N)CC2` (stereo not given) | 2.793 | -6.793 |
| `CC1CCN(c2nccn3c(=O)[nH]nc23)CC1` | 2.286 | 8.879 |
| `Cc1ccc(CN(C)C(=O)CN2CCCC(Cn3cncn3)C2)cc1` (stereo not given) | 13.64 | -7.11 |
| `CS(=O)(=O)CCSC1CCN(c2ccccc2F)C1=O` (stereo not given) | 15.47 | 5.436 |
| `Cc1noc(CCCC(=O)NCCc2cc3ccccc3[nH]2)n1` | 10.44 | -3.204 |
| `CCN1CCN(C2CCN(CCOc3ccc(F)cc3)CC2)C1=O` | 8.832 | -9.014 |
| `CCc1nc(Nc2ccc(C(=O)NC)cc2)c2c(n1)c(C)nn2CC` | 5.779 | 3.443 |
| `Cc1nc(CN2CCC(c3nc4cc(Cl)ccc4o3)CC2)oc1C` | 9.645 | -34.83 |
| `[H][C@@]12CCN(Cc3cc(C)on3)C[C@]1(C(=O)N1CCOCC1)CCO2` | - | 15.34 |
| `OCC1CCCCN1CCCNCc1cc(O)c2cc(F)ccc2n1` (stereo not given) | 14.75 | 0.6788 |
| `CSCCC(CO)NC(=O)c1ccc2[nH]/c(=N\S(C)(=O)=O)sc2c1` (stereo not given) | 19.63 | -16.01 |
| `COCc1cc(CNC(=O)c2cccc3c2OCC3)n[nH]1` | 12.94 | -19.09 |
| `Cc1cn2c(n1)CCC(NC(=O)CCOc1cccc(F)c1)C2` (stereo not given) | 20.69 | -36.77 |
| `CCCS(=O)(=O)N1CC(=O)N(Cc2cccc(OC)c2OC)CC(O)C1` (stereo not given) | 4.658 | 3.552 |
| `CCc1cnc(NC(=O)NC2CCN(C3CCCC3)CC2)s1` | 14.01 | -32.74 |
| `Cc1nc(C(=O)N2CCCC2c2cnn(C)c2)ccc1C#N` (stereo not given) | 11.17 | -15.27 |
| `O=C(O)C(F)(F)F.[H][C@@]12COC[C@@H](CC(=O)N3CCCC3)[C@]1([H])CN(Cc1ccc(F)cc1)C2` | - | -10.78 |
| `CCc1nc(C2CCCN(C(=O)NC(C)C)C2)no1` (stereo not given) | 13.26 | -14.03 |
| `COC1COC2(CCN(Cc3cccc(C#N)c3)CC2)C1.O=C(O)C(F)(F)F` (stereo not given) | - | -16.53 |
| `Cn1nccc1-c1ncc2c(c1C(=O)O)CCN(Cc1ccncc1)C2` | 13.59 | - |
| `CCn1nnc2c1C(COCC(=O)N(C)C)CN(Cc1ccco1)C2.O=C(O)C(F)(F)F` (stereo not given) | - | 31.48 |
| `Cc1cc(CN2C[C@@H]3COC[C@H](C(=O)N4CCCCO4)[C@@H]3C2)no1` | 10.95 | - |
| `CC(C)c1nnc(CNc2nc(-c3cccnc3)nc3c2CCC3)n1C` | 12.11 | 5.95 |
| `Cc1ncc(CNc2cnccc2CO)s1` | 11.8 | 5.095 |
| `COC(=O)c1ccc(N2CCN(C(=O)c3ccncc3)C(C)C2)cc1` (stereo not given) | 6.103 | -2.197 |
| `COc1ccc(C2CCCN2c2cnccn2)c(OC)c1` (stereo not given) | 14.97 | -31.77 |
| `Cc1ncc(CN(Cc2ccccn2)Cc2ccccc2Cl)n1C` | 10.5 | - |
| `Cc1cc(C)c(S(=O)(=O)NCCC(=O)NCc2ccoc2)c(C)c1` | -0.5305 | 10.64 |
| `CCC(C)NC(=O)CCc1ccnc2ccccc12` (stereo not given) | 7.258 | -47.93 |
| `CC(C)c1noc(C(C)N2CCN(c3ccc(C#N)cn3)CC2)n1` (stereo not given) | 6.402 | 5.098 |
| `COCc1cc(NCCc2ccc(OC)cc2)n2nccc2n1` | 13.91 | 1.184 |
| `CCS(=O)(=O)NCC(=O)NC(c1cc(C)sc1C)C(C)C` (stereo not given) | 9.399 | -18.77 |
| `CC(C)OCCC1CCCCN1S(N)(=O)=O` (stereo not given) | -3.495 | -35.94 |
| `O=C(CCNc1ncccn1)NCCOc1ccc2c(c1)CCC2` | 15.75 | -41.75 |
| `[H][C@]12CC[C@]([H])(C1)[C@H](NC(=O)COc1cccc(NC(=O)CC)c1)C2` | - | -8.125 |
| `O=C(NCc1ccco1)[C@@H]1COC[C@H]2CN(c3ncc(F)cn3)C[C@H]21` | 11.59 | - |
| `CCOC(=O)c1n[nH]cc1CN1CCCC(N(C)Cc2ccccc2)C1` (stereo not given) | 9.366 | -191.1 |
| `CCN(CC)CCNC(=O)c1ccc(Cl)c(NS(C)(=O)=O)c1` | 5.498 | -3.956 |
| `Cc1cnn(CC2CCCCN2C(=O)c2ccnc(N(C)C)c2)c1` (stereo not given) | 13.89 | -4.132 |
| `Cc1cccc(CN2C[C@@H]3CCCO[C@@H]3[C@H](Nc3ccccn3)C2)n1` | 12.18 | - |
| `CN(Cc1ccco1)C(=O)CN1CCOC(Cn2cccn2)C1` (stereo not given) | 19.13 | -2.574 |
| `CN[C@@H](CO)C(=O)NCc1cc2n(n1)CCCN(C1CCCCC1)C2` | 10.14 | 10.34 |
| `Cc1ccc2nc(C3CCN(CCO)CC3)nn2c1` | 7.95 | -4.853 |
| `CCN1CCN(C(C)CNC(=O)Nc2cnn(CC)c2)CC1` (stereo not given) | 28.45 | -19.21 |
| `N#Cc1cccnc1OC1CCNCC1` | 8.869 | - |
| `Cc1nnc(CCNC(=O)C(c2ccc(F)cc2)N(C)C)[nH]1` (stereo not given) | 14.18 | -12.32 |
| `Cc1cccc(Nc2nccnc2C2CCCN2CC(=O)N(C)C)n1` (stereo not given) | 3.833 | -18.5 |
| `CCn1cc(NC(=O)c2cc(C)nc(N3CCOCC3)n2)cn1` | 17.84 | -4.392 |
| `CN(C)CCN(Cc1ccco1)C(=O)Cc1cn2ccsc2n1` | 11.23 | 3.952 |
| `CC(C)(CO)Nc1cc(-c2cn[nH]c2)ncn1.Cl` | - | 3.413 |
| `O=C(NCCN1CCOCC1)c1scnc1Cl` | 16 | 7.533 |
| `O=C(NCC(F)(F)C(F)F)c1ccncc1` | 3.866 | -2.247 |
| `CO[C@H]1CN(C(C)C)C[C@@H]1NC(=O)Nc1ccc(C(F)(F)F)cc1` | 19.24 | 10.17 |
| `O=C1CCCN1Cc1ncn2c1CN(S(=O)(=O)c1cccs1)CCC2` | 19.26 | -42.62 |
| `Cc1cc(-c2ccc(C(C)N3CCOCC3)cc2)cnc1N` (stereo not given) | 10.86 | -7.173 |
| `Cc1oncc1C(=O)N1CC[C@H]2[C@H]1CCN2Cc1ccccn1` | 2.017 | - |
| `Cc1cc(OCc2cccc(F)c2)ccc1NC(=O)C(C)NC(N)=O` (stereo not given) | 3.623 | 8.331 |
| `O=C(O)C(F)(F)F.O=C(O)C(F)(F)F.O=C1COC2(COCCN(Cc3cccnc3)C2)CN1c1ccccc1` (stereo not given) | - | -15.54 |
| `Cc1ccc2c(c1)OCCN2C(=O)c1ccc(=O)n(C)c1` | 12.57 | 2.153 |
| `CN1CCN(C(=O)c2cncc(CC3CCCN(C)C3)c2)CC1` (stereo not given) | 5.137 | -16.47 |
| `Cc1ccccc1[C@@H]1CN(Cc2nc3ncccn3n2)C[C@H]1C(=O)O` | 8.065 | -0.06622 |
| `CC(O)(CNC(=O)c1c(F)cccc1Cl)C1CC1` (stereo not given) | 20.4 | -5.372 |
| `Cc1oc(C(=O)O)cc1S(=O)(=O)Nc1ccc(Cl)c(F)c1` | 11.74 | 9.685 |
| `CCS(=O)(=O)N1C[C@@H]2CN(Cc3cnn(C)c3)CCO[C@@H]2C1` | 5.674 | - |
| `Cc1nccn1[C@@H]1CC[C@@H](NC(=O)CCOc2ccccc2)[C@H]1O` | 8.491 | -21.14 |
| `NC(=O)CN1CCCC(Cc2ccc(N3CCOCC3)nn2)C1` (stereo not given) | 3.859 | -10.53 |
| `CC(C)Oc1cc(N2CCN(Cc3ccsc3)C(CCO)C2)nc(N)n1` (stereo not given) | 6.969 | -13.31 |

For reference, 9 entries once more:

structure	A	B
Cc1ccc(CN(C)C(=O)CN2CCCC(Cn3cncn3)C2)cc1 (stereo not given)	13.64	-7.11
CN[C@@H](CO)C(=O)NCc1cc2n(n1)CCCN(C1CCCCC1)C2	10.14	10.34
COc1ccc(C2CCCN2c2cnccn2)c(OC)c1 (stereo not given)	14.97	-31.77
CC(C)c1nnc(CNc2nc(-c3cccnc3)nc3c2CCC3)n1C	12.11	5.95
NCc1cccc(NC(=O)CCN2CCOCC2)c1	7.542	-17.14
Cc1oncc1C(=O)N1CC[C@H]2[C@H]1CCN2Cc1ccccn1	2.017	-
Cc1nccn1[C@@H]1CC[C@@H](NC(=O)CCOc2ccccc2)[C@H]1O	8.491	-21.14
CCn1nnc2c1C(COCC(=O)N(C)C)CN(Cc1ccco1)C2.O=C(O)C(F)(F)F (stereo not given)	-	31.48
CCC(C)NC(=O)CCc1ccnc2ccccc12 (stereo not given)	7.258	-47.93